Laboratory results from the supplement of paper PMC8256030.
“And” between values parts separate entries of the source, which are not always exact repeats. Equal entries are not always repeated. ± gives the standard deviation of the averaged measurements. This is one part of the list. Repeats in this data set agree poorly, so a single value says little.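 HEK293T cells were given each compound shortly before transfection with a reporter in which red mCherry is followed by the SARS-CoV-2 frameshift element and then GFP in the −1 frame, so GFP appears only after frameshifting.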

Key:
[1] = system: SARS-CoV-2 -1 PRF reporter mCherry-FSE-GFP(-1); assay: mCherry (red) intensity as percent of control; higher = higher upstream reporter expression; conditions: 10 µM; 24 h; HEK293T
[2] = system: SARS-CoV-2 -1 PRF reporter mCherry-FSE-GFP(-1); assay: percent effect, decrease of GFP/mCherry ratio (-1 PRF reporter) relative to controls; higher = stronger frameshift inhibition; conditions: 10 µM; 24 h; HEK293T

| Compound | mCherry [1] | percent effect [2] |
| --- | --- | --- |
| CC(SC(=O)c1cccs1)C(=O)NCC(=O)O (stereo not given) [stepronin] | 124% | -6.09% |
| C[n+]1cc2c3c(ccc2c2ccc4cc5c(cc4c21)OCO5)OCO3 [sanguinarium chloride] | 11.1% | 1.4% |
| COC(=O)N[C@H](C(=O)N[C@@H](Cc1ccccc1)[C@@H](O)CN(Cc1ccc(-c2ccccn2)cc1)NC(=O)[C@@H](NC(=O)OC)C(C)(C)C)C(C)(C)C [atazanavir] | 85.2% | -0.889% |
| Nc1nccs1 [aminothiazole] | 110% | -0.46% |
| O=C1C2CC3CC1CC(O)(C3)C2 [idramantone] | 101% | 0.652% |
| Nc1nc2c(ncn2COC(CO)CO)c(=O)[nH]1 [ganciclovir] | 111% | -12.5% |
| O=C(Nc1cccc2c(=O)cc(-c3nnn[nH]3)oc12)c1ccc(OCCCCc2ccccc2)cc1 [pranlukast] | 105% | -1.79% |
| CC(=O)OCC(=O)[C@@]1(O)CC[C@H]2[C@@H]3CCC4=CC(=O)CC[C@]4(C)[C@@]3(F)[C@@H](O)C[C@@]21C | 112% | -1.46% |
| CN(C)C(=N)NC(=N)N [metformin] | 98.4% | 1.62% |
| CC(=O)OCC1=C(C(=O)O)N2C(=O)[C@@H](NC(=O)Cc3cccs3)[C@H]2SC1 | 125% | -0.246% |
| COC(=O)CCC(=O)CN [Metvixia] | 112% | -3.16% |
| CCCc1nc2c(C)cc(-c3nc4ccccc4n3C)cc2n1Cc1ccc(-c2ccccc2C(=O)O)cc1 [telmisartan] | 114% and 94.1% | -1.61% and -0.567% |
| CC(C)(N)C(=O)N[C@@H](Cc1c[nH]cn1)C(=O)N[C@H](Cc1ccc2ccccc2c1)C(=O)N[C@H](Cc1ccccc1)C(=O)N[C@@H](CCCCN)C(N)=O [ipamorelin] | 93.4% | -11.6% |
| CN1C(=N)N(c2ccccc2)CC1=O [azolimine] | 123% | -0.228% |
| O=C(O)Cc1ccc(CCNS(=O)(=O)c2ccc(Cl)cc2)cc1 [daltroban] | 78% | -10.8% |
| CCOc1ccccc1OCC(O)CO (stereo not given) [guaietolin] | 93.3% | -0.617% |
| CC(N)C12CC3CC(CC(C3)C1)C2 (stereo not given) [rimantadine] | 110% | -3.47% |
| N=C(N)NC(=O)c1nc(Cl)c(N)nc1N | 87.9% | -4.66% |
| Nc1c(CC(=O)O)cccc1C(=O)c1ccccc1 [amfenac] | 107% | -0.0736% |
| NC(=O)OCC(COC(N)=O)c1ccccc1 [felbamate] | 96.9% | 3.81% |
| CCCCCCn1c(=O)c2c(ncn2C)n(C)c1=O [pentifylline] | 108% | 0.325% |
| CC(C)c1c(C(=O)Nc2ccccc2)c(-c2ccccc2)c(-c2ccc(F)cc2)n1CC[C@@H](O)C[C@@H](O)CC(=O)O [atorvastatin] | 96% and 95.1% | -5.66% and -1.15% |
| CC1=C(/C=C/C(C)=C/C=C/C(C)=C/CO)C(C)(C)CCC1 [retinol] | 82.2% | -4.58% |
| CC(=O)SC[C@@H](Cc1ccccc1)C(=O)NCC(=O)OCc1ccccc1 [ecadotril] | 65.4% | -1.68% |
| CS(=O)(=O)c1ccc2c(c1)N(CCCN1CCC(C(N)=O)CC1)c1ccccc1S2 [metopimazine] | 69.3% | 1.51% |

| Compound | mCherry [1] | percent effect [2] |
| --- | --- | --- |
| CN(C)C/C=C(/c1ccc(Br)cc1)c1cccnc1 [zimeldine] | 72% | -3.12% |
| CCN(CC)CCc1nc(-c2ccccc2)no1 | 110% | -2.04% |
| CCC(Cc1c(I)cc(I)c(N)c1I)C(=O)O (stereo not given) [iopanoic acid] | 134% | 0.435% |
| COC(=O)N/N=C/c1c[n+]([O-])c2ccccc2[n+]1[O-] [carbadox] | 81.2% | -11.2% |
| COc1cc(/C=C/C(=O)N2CCN(CC(=O)NC(C)C)CC2)cc(OC)c1OC [cinpropazide] | 101% | -6.36% |
| O=C1NC(c2ccccc2)(c2ccccc2)C(=O)N1COP(=O)(O)O [fosphenytoin] | 101% | -4.08% |
| CCCCc1nc(Cl)c(CO)n1Cc1ccc(-c2ccccc2-c2nnn[nH]2)cc1 | 87.2% | -4.05% |
| c1ccc(CC2=NCCN2)cc1 [tolazoline] | 117% | -7.25% |
| Cc1cc2c(OCC(O)CNC(C)C)cccc2[nH]1 (stereo not given) [mepindolol] | 79.5% | -1.04% |
| Cc1cc(=O)[nH]c(=S)[nH]1 | 112% | -0.219% |
| CN(C)CCCN1c2ccccc2Sc2cccnc21 [prothipendyl] | 46.5% | 1.59% |
| CC[C@@]1(O)C(=O)OCc2c1cc1n(c2=O)Cc2cc3c(CN(C)C)c(O)ccc3nc2-1 | 153% | 10.4% |
| O=C1O[C@H](CO)[C@@H](O)[C@H](O)[C@H]1O | 95.8% | -1.39% |
| NC(=O)CC[C@H](N)C(=O)O [glutamine] | 106% | -4.51% |
| CC1(C)S[C@@H]2[C@H](NC(=O)COc3ccccc3)C(=O)N2[C@H]1C(=O)O | 95.4% | 3.24% |
| CO[C@H](C(=O)[C@@H](O)[C@@H](C)O)[C@@H]1Cc2cc3cc(O[C@H]4C[C@@H](O[C@H]5C[C@@H](O)[C@H](O)[C@@H](C)O5)[C@H](O)[C@@H](C)O4)c(C)c(O)c3c(O)c2C(=O)[C@H]1O[C@H]1C[C@@H](O[C@H]2C[C@@H](O[C@H]3C[C@](C)(O)[C@H](O)[C@@H](C)O3)[C@@H](O)[C@@H](C)O2)[C@H](O)[C@@H](C)O1 [plicamycin] | 14.8% | 1.27% |
| CC#C[C@]1(O)CC[C@H]2[C@@H]3CCC4=CC(=O)CCC4=C3[C@@H](c3ccc(N(C)C)cc3)C[C@@]21C [mifepristone] | 77.1% and 96.5% | -3.6% and 1.42% |
| C[C@H]1c2cccc(O)c2C(O)=C2C(=O)[C@]3(O)C(O)=C(C(N)=O)C(=O)[C@@H](N(C)C)[C@@H]3[C@@H](O)[C@@H]21 [Doxycycline] | 64.5% and 71.6% | 0.664% and -0.649% |
| CC(=O)N1CCN(c2ccc(OCC3COC(Cn4ccnc4)(c4ccc(Cl)cc4Cl)O3)cc2)CC1 (stereo not given) [ketoconazole] | 93.9% and 74.2% and 92% | -3.68% and -4.39% and -3.31% |
| O=c1[nH]cnc2c1ncn2[C@@H]1O[C@H](CO)[C@@H](O)[C@H]1O [inosine] | 131% | 5.51% |
| CC(C)(Oc1ccc(Cl)cc1)C(=O)O [Clofibric acid] | 72.3% | -5.41% |
| CCOC(=O)CCC(=O)O[C@H]1[C@H](O[C@@H]2[C@@H](C)[C@H](O[C@H]3C[C@@](C)(OC)[C@@H](O)[C@H](C)O3)[C@@H](C)C(=O)O[C@H](CC)[C@@](C)(O)[C@H](O)[C@@H](C)C(=O)[C@H](C)C[C@@]2(C)O)O[C@H](C)C[C@@H]1N(C)C | 120% | -7.87% |
| CO/N=C(\C(=O)N[C@@H]1C(=O)N2C(C(=O)O)=CCS[C@H]12)c1csc(N)n1 [Cefizox] | 116% | -2.01% |
| CN(CCOc1ccc(NS(C)(=O)=O)cc1)CCc1ccc(NS(C)(=O)=O)cc1 [dofetilide] | 95.4% | 1.48% |
| CC(=O)N[C@@H](CCC(N)=O)C(=O)O | 113% | 1.73% |

| Compound | mCherry [1] | percent effect [2] |
| --- | --- | --- |
| CCS(=O)(=O)c1ccc(F)cc1 [fluoresone] | 93.1% | -2.76% |
| CC(N)C12CC3CC(CC(C3)C1)C2 (stereo not given) [Rimantadine] | 119% | -7.37% |
| COCCc1ccccn1 [metyridine] | 82.9% | -2.74% |
| CC(=O)C(=Cc1cc(O)c(O)c([N+](=O)[O-])c1)C(C)=O [nitecapone] | 80.6% | 1.41% |
| CCOC(=O)n1ccn(C)c1=S [carbimazole] | 123% | -3.42% |
| COc1ccccc1O | 92.5% | -3.62% |
| O=C1NOCC1/N=C/c1ccc(/C=N/C2CONC2=O)cc1 (stereo not given) [terizidone] | 97.5% | -5.63% |
| Nc1cc(-c2ccncc2)c[nH]c1=O [amrinone] | 105% and 82.9% | -3.99% and 1.31% |
| CN1CCN(c2cc3c(nn2)Oc2ccccc2N3C)CC1 [pipofezine] | 102% | -9.61% |
| CCCCCCCCCCCCCCCCCCOP(=O)([O-])OC1CC[N+](C)(C)CC1 | 109% | -0.204% |
| CCOc1nc2cccc(C(=O)O)c2n1Cc1ccc(-c2ccccc2-c2nnn[nH]2)cc1 [Candesartan] | 108% and 98.5% | -6.82% and -1.47% |
| C=CCOc1ccc(CC(=O)O)cc1Cl [alclofenac] | 80.8% | -4.92% |
| COc1cc2c3cc1Oc1cc(ccc1O)C[C@@H]1c4c(cc(OC)c(O)c4Oc4ccc(cc4)C[C@@H]3N(C)CC2)CC[N+]1(C)C | 92.1% | 1.69% |
| C[N+]1(C)[C@@H]2C[C@@H](OC(=O)C(O)(c3cccs3)c3cccs3)C[C@H]1[C@@H]1O[C@@H]12 [Tiotropium Bromide] | 42.9% | -8.36% |
| CCN(Cc1ccncc1)C(=O)C(CO)c1ccccc1 (stereo not given) | 95.6% | -3.41% |
| NS(=O)(=O)c1ccc(C(=O)O)cc1 [carzenide] | 107% | -3.72% |
| O=C(CCCc1ccccc1)OCC(COC(=O)CCCc1ccccc1)OC(=O)CCCc1ccccc1 [glycerol phenylbutyrate] | 83.1% | 2.31% |
| CCCCC(C)(O)C/C=C/[C@H]1[C@H](O)CC(=O)[C@@H]1CCCCCCC(=O)OC (stereo not given in full) [Cytotec] | 116% | -3.7% |
| O=C(O)C1(C(=O)O)CCC1.[NH2-].[NH2-].[Pt+2] | 105% and 95.7% | -0.789% and -6.77% |
| CC[C@@]12C=C(C(=O)OC)n3c4c(c5ccccc53)CCN(CCC1)[C@H]42 [apovincamine] | 101 ± 10% | -0.893 ± 1.8% |
| CCCCCCCCCCCCOCCCN [laurixamine] | 89.7% | -0.219% |
| Cc1cccc(C)c1NC(=O)c1ccc(N)cc1 [ameltolide] | 116% | -0.778% |
| CCN(CC)CCOc1ccc2c(c1)C(=O)c1cc(OCCN(CC)CC)ccc1-2 | 104% | -2.59% |
| CN(C)CCc1c[nH]c2ccc(C[C@H]3COC(=O)N3)cc12 [zolmitriptan] | 103% | -0.298% |
| CCCCc1nc(Cl)c(CO)n1Cc1ccc(-c2ccccc2-c2nnn[nH]2)cc1 [Cozaar] | 117% | -0.781% |

Pulled one by one from above (four):

| Compound | mCherry [1] | percent effect [2] |
| --- | --- | --- |
| CC(=O)OCC(=O)[C@@]1(O)CC[C@H]2[C@@H]3CCC4=CC(=O)CC[C@]4(C)[C@@]3(F)[C@@H](O)C[C@@]21C | 112% | -1.46% |
| Nc1cc(-c2ccncc2)c[nH]c1=O [amrinone] | 105% and 82.9% | -3.99% and 1.31% |
| CN(C)CCCN1c2ccccc2Sc2cccnc21 [prothipendyl] | 46.5% | 1.59% |
| CC#C[C@]1(O)CC[C@H]2[C@@H]3CCC4=CC(=O)CCC4=C3[C@@H](c3ccc(N(C)C)cc3)C[C@@]21C [mifepristone] | 77.1% and 96.5% | -3.6% and 1.42% |
